Experimental data as given in publication PMC3460623.
These are yes or no findings as the source states them, for the method shown. In cells and extracts the contact can be indirect. A result given as binding can be weak or reduced; the word gives no strength.

Biological target: GST fusion of the cytoplasmic domain of K15-P, wild type (Kaposi's Sarcoma Herpesvirus (KSHV, HHV8))
Assay: pull-down; GST fusion proteins on glutathione sepharose beads incubated with cleared HEK293T lysates (TBS-T) overnight at 4°C; bound endogenous PLCγ1 detected by Western blot; only the target purified

B1: Phospholipase C γ1 (PLCγ1), endogenous (enzyme, UniProt P19174 1-1290)
chain: MAGAASPCANGCGPGAPSDAEVLHLCRSLEVGTVMTLFYSKKSQRPERKTFQVKLETRQITWSRGADKIEGAIDIREIKEIRPGKTSRDFDRYQEDPAFRPDQSHCFVILYGMEFRLKTLSLQATSEDEVNMWIKGLTWLMEDTLQAPTPLQIERWLRKQFYSVDRNREDRISAKDLKNMLSQVNYRVPNMRFLRERLTDLEQRSGDITYGQFAQLYRSLMYSAQKTMDLPFLEASTLRAGERPELCRVSLPEFQQFLLDYQGELWAVDRLQVQEFMLSFLRDPLREIEEPYFFLDEFVTFLFSKENSVWNSQLDAVCPDTMNNPLSHYWISSSHNTYLTGDQFSSESSLEAYARCLRMGCRCIELDCWDGPDGMPVIYHGHTLTTKIKFSDVLHTIKEHAFVASEYPVILSIEDHCSIAQQRNMAQYFKKVLGDTLLTKPVEISADGLPSPNQLKRKILIKHKKLAEGSAYEEVPTSMMYSENDISNSIKNGILYLEDPVNHEWYPHYFVLTSSKIYYSEETSSDQGNEDEEEPKEVSSSTELHSNEKWFHGKLGAGRDGRHIAERLLTEYCIETGAPDGSFLVRESETFVGDYTLSFWRNGKVQHCRIHSRQDAGTPKFFLTDNLVFDSLYDLITHYQQVPLRCNEFEMRLSEPVPQTNAHESKEWYHASLTRAQAEHMLMRVPRDGAFLVRKRNEPNSYAISFRAEGKIKHCRVQQEGQTVMLGNSEFDSLVDLISYYEKHPLYRKMKLRYPINEEALEKIGTAEPDYGALYEGRNPGFYVEANPMPTFKCAVKALFDYKAQREDELTFIKSAIIQNVEKQEGGWWRGDYGGKKQLWFPSNYVEEMVNPVALEPEREHLDENSPLGDLLRGVLDVPACQIAIRPEGKNNRLFVFSISMASVAHWSLDVAADSQEELQDWVKKIREVAQTADARLTEGKIMERRKKIALELSELVVYCRPVPFDEEKIGTERACYRDMSSFPETKAEKYVNKAKGKKFLQYNRLQLSRIYPKGQRLDSSNYDPLPMWICGSQLVALNFQTPDKPMQMNQALFMTGRHCGYVLQPSTMRDEAFDPFDKSSLRGLEPCAISIEVLGARHLPKNGRGIVCPFVEIEVAGAEYDSTKQKTEFVVDNGLNPVWPAKPFHFQISNPEFAFLRFVVYEEDMFSDQNFLAQATFPVKGLKTGYRAVPLKNNYSEDLELASLLIKIDIFPAKENGDLSPFSGTSLRERGSDASGQLFHGRAREGSFESRYQQPFEDFRISQEHLADHFDSRERRAPRRTRVNGDNRL
In the case of B1, the binding is reported as “binds”.
